Assay results reported in publication PMC6989399, “A drug library screen identifies Carbenoxolone as novel FOXO inhibitor that overcomes FOXO3-mediated chemoprotection in high-stage neuroblastoma” (Oncogene, 2019).

By UniProt entry, the sequences of proteins in these tests, tags left out. Residues count along the entry.
UniProt O43524, 156-269: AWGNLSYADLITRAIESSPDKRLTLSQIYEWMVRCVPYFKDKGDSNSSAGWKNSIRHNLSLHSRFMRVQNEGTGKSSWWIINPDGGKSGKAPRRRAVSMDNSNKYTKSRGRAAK

Molecular target: FOXO3-DBD (Homo sapiens, UniProt O43524)
Test: EMSA
Details: FAM-EMSA: 20 mM Tris pH 7.5, 100 mM NaCl, 1 mM EDTA, 5% glycerol, 30 min RT, 5% PAGE 0.5x TBE, recombinant protein, residues 156-269, protein details: N-terminal GST, His (GST-His-purified)

“AGCAAAGTTGGGGTTGATAATG (double strand) [FoxP3-mut-FAM]”: no binding (1 uM protein, 100 nM DNA).
“AGCAAAGTTGTTTTTGATAATG (double strand) [FoxP3-FAM]”: no binding (60 uM carbenoxolone (CBX)).

No signal at the amounts used counts as a negative. At least one verdict was read from the data and is not stated in words by the source.
